The test addresses protein tyrosine phosphatase sigma (PTPσ) (mouse (endogenous in brain)) (UniProt B0V2N1). Put plainly: co-IP; crude synaptosomes from 4-week-old WT and homozygous KI littermate mouse brains lysed in cold lysis buffer; pre-cleared supernatant incubated with Protein G Sepharose beads coated with anti-PTPσ antibody (clone 17G7.2) overnight at 4 °C; immunoblotting for TrkC and PTPσ.

Protein sequences, listed by entry. Tags and fused reporters are not part of them. Lines headed by an entry give the natural chain unless they say otherwise; changes in a name come on top. Chains listed by the source or under a name are the forms on record and can include a tag or linker. Residues count along the entry.
UniProt B0V2N1, residues 30-1907: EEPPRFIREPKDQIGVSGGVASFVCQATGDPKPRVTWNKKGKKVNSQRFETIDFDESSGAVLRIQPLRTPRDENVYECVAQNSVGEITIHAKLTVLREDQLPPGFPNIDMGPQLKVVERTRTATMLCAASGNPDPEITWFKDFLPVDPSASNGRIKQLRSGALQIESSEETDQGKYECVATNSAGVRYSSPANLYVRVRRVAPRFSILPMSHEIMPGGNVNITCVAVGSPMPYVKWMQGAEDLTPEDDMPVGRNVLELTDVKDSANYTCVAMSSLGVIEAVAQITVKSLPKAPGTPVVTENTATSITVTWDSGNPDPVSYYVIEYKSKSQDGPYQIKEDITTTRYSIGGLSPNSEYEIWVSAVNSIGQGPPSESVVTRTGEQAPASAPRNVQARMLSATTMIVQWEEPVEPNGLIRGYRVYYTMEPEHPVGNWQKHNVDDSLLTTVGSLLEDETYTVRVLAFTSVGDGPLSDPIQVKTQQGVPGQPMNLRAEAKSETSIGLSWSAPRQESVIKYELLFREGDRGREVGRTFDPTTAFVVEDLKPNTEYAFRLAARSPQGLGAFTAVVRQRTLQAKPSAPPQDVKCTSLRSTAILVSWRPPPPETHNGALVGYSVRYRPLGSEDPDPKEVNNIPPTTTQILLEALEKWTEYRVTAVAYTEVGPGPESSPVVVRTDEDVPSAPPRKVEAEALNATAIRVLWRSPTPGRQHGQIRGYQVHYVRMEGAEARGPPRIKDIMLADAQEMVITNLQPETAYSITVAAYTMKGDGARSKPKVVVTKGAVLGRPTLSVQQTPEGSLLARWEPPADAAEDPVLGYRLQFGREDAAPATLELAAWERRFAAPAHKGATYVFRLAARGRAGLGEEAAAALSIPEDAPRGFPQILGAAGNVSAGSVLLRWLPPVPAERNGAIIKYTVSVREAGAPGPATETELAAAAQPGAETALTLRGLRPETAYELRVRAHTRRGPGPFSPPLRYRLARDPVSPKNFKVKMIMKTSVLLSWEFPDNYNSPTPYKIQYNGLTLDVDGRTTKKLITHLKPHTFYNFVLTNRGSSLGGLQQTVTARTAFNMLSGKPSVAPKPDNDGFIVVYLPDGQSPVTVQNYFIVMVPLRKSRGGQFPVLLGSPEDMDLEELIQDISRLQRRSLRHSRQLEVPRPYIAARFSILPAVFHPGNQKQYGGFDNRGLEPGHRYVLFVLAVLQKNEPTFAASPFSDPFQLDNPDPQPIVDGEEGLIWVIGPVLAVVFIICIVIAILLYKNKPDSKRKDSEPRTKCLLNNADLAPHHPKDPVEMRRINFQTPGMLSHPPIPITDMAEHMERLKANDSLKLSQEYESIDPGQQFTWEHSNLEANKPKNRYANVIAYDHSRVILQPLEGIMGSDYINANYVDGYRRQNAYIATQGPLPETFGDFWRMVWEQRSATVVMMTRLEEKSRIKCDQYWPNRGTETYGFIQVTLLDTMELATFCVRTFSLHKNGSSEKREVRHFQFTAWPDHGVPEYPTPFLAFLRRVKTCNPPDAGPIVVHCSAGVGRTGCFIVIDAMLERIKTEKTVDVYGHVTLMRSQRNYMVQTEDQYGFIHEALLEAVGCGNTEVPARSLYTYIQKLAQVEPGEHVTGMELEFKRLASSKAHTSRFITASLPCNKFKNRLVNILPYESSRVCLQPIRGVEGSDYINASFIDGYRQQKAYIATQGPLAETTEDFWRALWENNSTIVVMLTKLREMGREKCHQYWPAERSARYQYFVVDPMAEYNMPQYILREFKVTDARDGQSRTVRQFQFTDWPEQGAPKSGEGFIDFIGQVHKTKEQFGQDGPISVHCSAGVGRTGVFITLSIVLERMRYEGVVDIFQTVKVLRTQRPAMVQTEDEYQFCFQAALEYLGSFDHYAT
TrkC TK+ (tropomyosin receptor kinase C, isoform with the intracellular tyrosine kinase domain), wild type (Q6VNS1, residues 32-825): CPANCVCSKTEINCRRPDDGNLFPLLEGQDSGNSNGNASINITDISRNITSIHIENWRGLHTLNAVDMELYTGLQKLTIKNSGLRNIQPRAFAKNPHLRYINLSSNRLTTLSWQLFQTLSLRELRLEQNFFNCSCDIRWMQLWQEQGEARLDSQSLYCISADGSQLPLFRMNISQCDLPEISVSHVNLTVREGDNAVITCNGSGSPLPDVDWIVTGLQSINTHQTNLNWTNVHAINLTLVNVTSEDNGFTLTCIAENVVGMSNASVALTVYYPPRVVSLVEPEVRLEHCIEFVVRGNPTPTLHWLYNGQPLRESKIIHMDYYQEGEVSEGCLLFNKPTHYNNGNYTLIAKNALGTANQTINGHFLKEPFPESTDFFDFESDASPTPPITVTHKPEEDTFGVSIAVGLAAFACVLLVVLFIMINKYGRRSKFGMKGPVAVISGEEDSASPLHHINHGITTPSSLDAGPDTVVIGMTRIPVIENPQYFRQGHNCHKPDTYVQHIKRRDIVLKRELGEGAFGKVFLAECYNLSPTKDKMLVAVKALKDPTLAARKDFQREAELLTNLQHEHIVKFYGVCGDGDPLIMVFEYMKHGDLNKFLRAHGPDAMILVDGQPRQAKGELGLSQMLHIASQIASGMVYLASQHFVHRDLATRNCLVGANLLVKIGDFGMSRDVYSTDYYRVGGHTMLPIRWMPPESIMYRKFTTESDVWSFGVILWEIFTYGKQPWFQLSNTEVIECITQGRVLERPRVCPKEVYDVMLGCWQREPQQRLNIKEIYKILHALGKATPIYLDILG
TrkC TK+ D240A;D242A (knock-in mutant) (Q6VNS1, form named): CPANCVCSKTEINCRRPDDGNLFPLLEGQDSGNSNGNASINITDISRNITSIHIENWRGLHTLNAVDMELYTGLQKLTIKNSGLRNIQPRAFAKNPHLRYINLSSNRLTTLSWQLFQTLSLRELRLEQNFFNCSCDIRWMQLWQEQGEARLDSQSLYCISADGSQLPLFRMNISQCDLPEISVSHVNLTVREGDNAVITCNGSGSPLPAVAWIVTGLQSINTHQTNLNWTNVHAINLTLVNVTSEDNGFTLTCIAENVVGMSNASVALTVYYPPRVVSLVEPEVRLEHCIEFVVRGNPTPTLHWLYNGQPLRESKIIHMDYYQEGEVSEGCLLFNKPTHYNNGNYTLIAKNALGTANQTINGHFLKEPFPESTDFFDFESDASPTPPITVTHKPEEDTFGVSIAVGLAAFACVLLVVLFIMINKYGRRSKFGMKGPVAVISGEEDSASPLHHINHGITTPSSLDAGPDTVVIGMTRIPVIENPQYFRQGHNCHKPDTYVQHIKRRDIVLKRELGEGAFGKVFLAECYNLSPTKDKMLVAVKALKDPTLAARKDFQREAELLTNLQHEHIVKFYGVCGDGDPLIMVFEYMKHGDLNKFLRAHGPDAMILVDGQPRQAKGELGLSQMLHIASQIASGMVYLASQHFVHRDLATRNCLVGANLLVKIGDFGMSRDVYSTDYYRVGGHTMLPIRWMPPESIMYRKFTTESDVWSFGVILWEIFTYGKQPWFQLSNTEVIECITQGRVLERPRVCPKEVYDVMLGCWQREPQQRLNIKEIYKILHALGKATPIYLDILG

Results are given in words; binding and its absence hold for the method and conditions named. Binding seen in cells or lysates may run through a third protein. Some binding calls cover weakened binding; strength is not graded here.

Regarding “TrkC TK+ (tropomyosin receptor kinase C, isoform with the intracellular tyrosine kinase domain), wild type (from UniProt Q6VNS1 32-825)”, the binding entry is “binds”.

As for “TrkC TK+ D240A;D242A (knock-in mutant) (from UniProt Q6VNS1 32-825) (receptor)”, the binding result was “no binding”.

For the origin of these results see PMC11574141.
